{"source": "paper PMC2834746", "target": "GAL4:Bma-EcR(LBD) (DEF domains, residues 259-565) (Brugia malayi)", "note": "Results are given in words; binding and its absence hold for the method and conditions named. Binding calls can cover weak binding; strength is not graded here."}
{"substance": "VP16:Bma-RXR(LBD) (DEF domains, residues 191 to 464) (from UniProt A9XG30) (domain or fragment)", "values": [{"measurement": "binding", "result": "binds"}]}
